Source: article doi:10.1101/2022.09.29.510157
No constants are given. Whether binding was seen depends on the method and setting. Some binding calls cover weakened binding; strength is not graded here.

Chains of the proteins cited; added tags and fusions are not shown.
UniProt Q3MHM5: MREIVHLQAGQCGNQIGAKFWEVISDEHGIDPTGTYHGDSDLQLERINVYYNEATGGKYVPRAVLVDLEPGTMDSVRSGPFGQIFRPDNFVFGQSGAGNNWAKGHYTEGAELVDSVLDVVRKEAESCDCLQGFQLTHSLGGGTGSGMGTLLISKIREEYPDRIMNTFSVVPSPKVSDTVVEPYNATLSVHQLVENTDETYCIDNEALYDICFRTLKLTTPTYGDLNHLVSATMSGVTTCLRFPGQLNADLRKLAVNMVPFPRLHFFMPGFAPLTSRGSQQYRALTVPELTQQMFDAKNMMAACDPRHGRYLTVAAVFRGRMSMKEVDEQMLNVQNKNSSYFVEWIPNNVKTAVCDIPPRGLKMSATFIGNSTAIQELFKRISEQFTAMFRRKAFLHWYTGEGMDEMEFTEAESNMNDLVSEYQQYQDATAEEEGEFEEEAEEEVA
UniProt A6H782: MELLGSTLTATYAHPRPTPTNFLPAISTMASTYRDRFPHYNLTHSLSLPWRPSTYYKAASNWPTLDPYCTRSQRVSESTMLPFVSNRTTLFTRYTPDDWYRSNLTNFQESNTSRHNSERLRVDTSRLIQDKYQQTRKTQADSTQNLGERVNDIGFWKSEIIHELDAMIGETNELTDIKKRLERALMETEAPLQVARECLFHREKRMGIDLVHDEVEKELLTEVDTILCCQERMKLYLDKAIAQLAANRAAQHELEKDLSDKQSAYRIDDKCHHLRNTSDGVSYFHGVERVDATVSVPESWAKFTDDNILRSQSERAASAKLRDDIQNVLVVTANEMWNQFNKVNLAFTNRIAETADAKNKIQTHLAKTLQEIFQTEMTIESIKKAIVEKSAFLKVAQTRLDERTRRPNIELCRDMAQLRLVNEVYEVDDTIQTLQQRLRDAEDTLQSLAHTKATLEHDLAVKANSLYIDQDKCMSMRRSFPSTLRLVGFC

How the values were obtained:
Experiment in all cases: cryo-EM structure
[1] = target: β-tubulin (TUBB4B) (bovine (endogenous in bovine sperm)) (UniProt Q3MHM5)
[2] = target: Tektin-3 (bovine (endogenous in bovine sperm)) (UniProt A6H782)
[3] = target: T1, Tektin-5 (bovine (endogenous in bovine sperm)) (UniProt Q2YDI7)
T1 sequence: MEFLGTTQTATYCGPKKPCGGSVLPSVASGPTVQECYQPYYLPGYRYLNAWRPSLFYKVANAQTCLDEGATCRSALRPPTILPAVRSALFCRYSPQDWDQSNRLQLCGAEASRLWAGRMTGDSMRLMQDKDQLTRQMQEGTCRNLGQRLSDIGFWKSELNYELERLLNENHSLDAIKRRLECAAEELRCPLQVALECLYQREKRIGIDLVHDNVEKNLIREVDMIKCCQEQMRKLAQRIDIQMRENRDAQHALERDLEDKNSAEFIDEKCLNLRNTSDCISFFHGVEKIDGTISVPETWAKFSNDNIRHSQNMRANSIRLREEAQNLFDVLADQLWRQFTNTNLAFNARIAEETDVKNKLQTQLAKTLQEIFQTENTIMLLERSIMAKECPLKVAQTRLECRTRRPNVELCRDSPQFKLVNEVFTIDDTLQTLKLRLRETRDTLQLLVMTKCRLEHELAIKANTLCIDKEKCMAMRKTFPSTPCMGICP

[4] = target: T2, Tektin-2 (bovine (endogenous in bovine sperm)) (UniProt Q2T9Q6)
T2 sequence: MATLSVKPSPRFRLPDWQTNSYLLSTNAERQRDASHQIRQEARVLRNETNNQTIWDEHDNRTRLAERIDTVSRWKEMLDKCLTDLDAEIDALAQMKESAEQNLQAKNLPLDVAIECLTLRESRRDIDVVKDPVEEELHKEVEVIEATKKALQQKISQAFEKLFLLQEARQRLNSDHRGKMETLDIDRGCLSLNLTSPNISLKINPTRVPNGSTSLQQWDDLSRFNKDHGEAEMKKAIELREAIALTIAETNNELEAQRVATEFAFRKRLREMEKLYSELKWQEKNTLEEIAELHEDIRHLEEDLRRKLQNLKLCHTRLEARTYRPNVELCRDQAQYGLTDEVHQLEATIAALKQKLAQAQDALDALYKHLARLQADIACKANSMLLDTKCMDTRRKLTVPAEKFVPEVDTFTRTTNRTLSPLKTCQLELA

binding [1] | binding [2] | binding [3] | binding [4] | Binder
binds |  |  |  | ENKUR (protein, UniProt E1B836 1-259) MVAMDPTGPSESIYNLIPSDWKEPPQPPRYVSIFKATVKDDMQKFKTAMKTMGPAKLEVPSPKDFLKKHSKEKILPPKKKFEWNERRKPPVPLRTDHPVMGIQSEKNFINTNAADVIMGVAKKPKPIYVDKRTGDKHDLETSGLVPKYINKKDYGVTPEYICKRNEEVKKAQEEYDNYIQENLRKAAMKRLSDEEREAVLQGLKKNWEEVHKEFQSLSVFIDSIPKKIRKQKLEEEMKQLEHDIGVLEKHKVIYIANKK
 | binds | binds |  | Tektin-2 (protein, UniProt Q2T9Q6 1-430) MATLSVKPSPRFRLPDWQTNSYLLSTNAERQRDASHQIRQEARVLRNETNNQTIWDEHDNRTRLAERIDTVSRWKEMLDKCLTDLDAEIDALAQMKESAEQNLQAKNLPLDVAIECLTLRESRRDIDVVKDPVEEELHKEVEVIEATKKALQQKISQAFEKLFLLQEARQRLNSDHRGKMETLDIDRGCLSLNLTSPNISLKINPTRVPNGSTSLQQWDDLSRFNKDHGEAEMKKAIELREAIALTIAETNNELEAQRVATEFAFRKRLREMEKLYSELKWQEKNTLEEIAELHEDIRHLEEDLRRKLQNLKLCHTRLEARTYRPNVELCRDQAQYGLTDEVHQLEATIAALKQKLAQAQDALDALYKHLARLQADIACKANSMLLDTKCMDTRRKLTVPAEKFVPEVDTFTRTTNRTLSPLKTCQLELA
 | binds |  | binds | DUSP21 (protein, UniProt F6QJZ9 1-196) MTTPLCPFPIQAVRQPAAHGLSQITKSLYLSDAVAAKDKAMLSTNHITTVINVSMEATDTFLEDIQYVKVPLADAPNSRLYDFFDFIADHIHSVEMKQGRTLLHCAAGVSRSATFCLAYLMKYHSMSLLDAHTWTKSCRPTIRPNNGFWEQLIYYEFKLFSKNTVHMISSSMGMIPDVYEKEICLMTLMGVIPDSS
